PubChem BioAssay AID652272, Drosophila RNAi Screening Center, 2013
Assay: 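Finding fly genes that regulate Hedgehog signal transduction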 (primary screen). Cells: Drosophila clone 8 (Cl8) cells. Reagent: long dsRNA against Drosophila genes. Measured: 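Firefly light from a Hedgehog-responsive ptc promoter reporter and Renilla reference light, both read on a plate reader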. Scale: firefly Hh reporter signal: higher = more ptc reporter light; Renilla reference signal: higher = more Renilla control light. Rule for the call: 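Called a hit if the two-replicate mean z-score lies below -2 or above +3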. Meaning of the calls: active = hit: reporter lowered or raised; inactive = not a hit.
The screen tested about 21,000 reagents; shown is a random part of those with a known target gene and a result. Of all reagents, 503 (2.4%) got an active call. 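Raw plate light values, not normalised; calls rest on replicate z-scores that were not deposited; hits include reporter decreases as well as increases.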 A number with no mark means an inactive call. The numbers tell different reagents against one gene apart. A plus sign joins genes that one reagent is predicted to hit. Reagent sequences are not shown. Not given: the amount of reagent, the time to read-out.

no.	gene	dsRNA no.	firefly Hh reporter signal, replicate 1	firefly Hh reporter signal, replicate 2	firefly Hh reporter signal, replicate 3	Renilla reference signal, replicate 1	Renilla reference signal, replicate 2
1	Pnn	1	68821	1.35e5		2434	3904
2	ics	1	75144	95864		3568	3882
3	Archease	1	6.46e5	1.76e5		31683	2797
4	CG43127	1	1.23e5	2.30e5		3936	9760
5	rswl	1	1.06e5	99235		4349	3466
6	CNPYb	1	69728	51099		3369	2178
7	CG10638	1	71530	41346	35941	3858	922
8	CG13108	1	75984	36149		2256	3704
9	Unc-115b + p24-2 + Unc-115a	1	58336	1.03e5		1848	3136
10	CG16986	1	99339	50464		2819	3925
11	dap	1	79035	66420		2813	2519
12	mldr	1	91750	2.12e5		2560	8407
13	CG10864	1	5.89e5	1.04e5		29820	2996
14	CG18568	1	61216	70870		2966	3030
15	His2B:CG33894 + His2B:CG33872 + His2B:CG33902 + 20 more	1	16034	22516		349	1124
16	RpL30	1	27866 (active)	20908		1441	3857
17	comr	1	80792	58467		2390	5900
18	Frq2	1	1.02e5	3.74e5		3168	13372
19	CG32214	1	3.43e5			7222	
20	HnRNP-K	1	1.63e5	7.25e5	1.45e5	8235	43514
21	scf	1	52502	29459		1907	2024
22	Exd2	1	68570	1.34e5		2529	3330
23	CG3592	1	1.04e5	1.70e5		4247	6583
24	CG31251	1	5.26e5	99738		27207	2732
25	mRpL28	1	1.01e5	46842		2568	4453
26	CG7215 + Prx5	1	5.52e5	77651		29760	1852
27	CG7215 + Prx5	2	1.56e5	70620		5670	1987
28	Cpr65Az	1	1.05e5	86411		9654	6387
29	dsh	1	91490	2.33e5		3261	8502
30	rempA	1	82305	76582		1899	1913
31	CG1888	1	1.09e5	53700		2534	4880
32	Ugt35E1	1	1.09e5	1.63e5		2812	4440
33	Ibf1	1	84993	97675		1909	2808
34	CG12964	1	74784	38099		1910	2720
35	unc-45	1	1.05e5	1.64e5		3930	4448
36	CG4984 + CG4975	1	1.00e5	38560		2725	3127
37	CG4984 + CG4975	2	1.21e5	1.07e5		5680	4756
38	CG34050 (retired record)	1	46649	77856		1740	4509
39	CG10973	1	93901	79340		3965	3148
40	Zw	1	86603	93332		2201	2491
41	Ctu2	1	1.33e5	1.00e5		5574	4504
42	CG40245 (retired record)	1	4.63e5	2.09e5		24004	5001
43	CG42586 + CG31775	1	95852	1.50e5		2848	7032
44	tacc	1	2.11e5			4672	
45	tacc	2	1.74e5	1.07e5		5892	2905
46	mag	1	1.14e5	64579		5152	2854
47	Gmap	1	1.67e5	1.04e5		3472	2525
48	Gmap	2	85400	2.40e5		1958	9424
49	CG16721	1	1.26e5	1.30e5		2546	3195
50	CG8149	1	56200	95988		2049	2912
51	Obp69a	1	50637	16904	23831	1408	888
52	rux	1	72816	65063		1908	1590
53	Hat1	1	77105	1.04e5		3044	3157
54	AGO2	1	22504 (active)			960	1048
55	AGO2	2	59136	26992		2678	1364
56	Sc2	1	99948	72752		4084	2892
57	EbpII	1	1.03e5	1.32e5		4835	5424
58	CG3626	1	83970	2.04e5		3232	7050
59	Moe	1	84466	53818		2268	1633
60	tsr	1	83814	84296		1658	6605
61	CG14687	1	1.21e5	2.06e5		2150	5546
62	CG14442	1	62146	38922		1881	920
63	sktl	1	82076	51785		2981	1994
64	Rpn10	1	71607	71242		3459	2696
65	Alp12	1	1.67e5	64578		4069	6187
66	capt	1	1.03e5	77520		2424	2176
67	capt	2	1.26e5	99037		2610	2416
68	CG1889 + CG43386	1	95986	2.24e5		3168	9657
69	Or9a	1	86134	1.72e5		2699	6200
70	endos	1	91590	75445		3696	2371
71	Art1	1	81691	84384		3210	2883
72	CysRS-m	1	94442	57463		3990	2475
73	CG6006	1	48301	2.04e5		11572	3240
74	CG6006	2	1.11e5	83357		4185	3152

An excerpt from the list above, as a working copy:
no.	gene	dsRNA no.	firefly Hh reporter signal, replicate 1	firefly Hh reporter signal, replicate 2	firefly Hh reporter signal, replicate 3	Renilla reference signal, replicate 1	Renilla reference signal, replicate 2
49	CG16721	1	1.26e5	1.30e5		2546	3195
50	CG8149	1	56200	95988		2049	2912
51	Obp69a	1	50637	16904	23831	1408	888
52	rux	1	72816	65063		1908	1590
